This experiment concerns the target T1, FRS2-mNeonGreen (human) (UniProt Q8WU20).
T1 sequence: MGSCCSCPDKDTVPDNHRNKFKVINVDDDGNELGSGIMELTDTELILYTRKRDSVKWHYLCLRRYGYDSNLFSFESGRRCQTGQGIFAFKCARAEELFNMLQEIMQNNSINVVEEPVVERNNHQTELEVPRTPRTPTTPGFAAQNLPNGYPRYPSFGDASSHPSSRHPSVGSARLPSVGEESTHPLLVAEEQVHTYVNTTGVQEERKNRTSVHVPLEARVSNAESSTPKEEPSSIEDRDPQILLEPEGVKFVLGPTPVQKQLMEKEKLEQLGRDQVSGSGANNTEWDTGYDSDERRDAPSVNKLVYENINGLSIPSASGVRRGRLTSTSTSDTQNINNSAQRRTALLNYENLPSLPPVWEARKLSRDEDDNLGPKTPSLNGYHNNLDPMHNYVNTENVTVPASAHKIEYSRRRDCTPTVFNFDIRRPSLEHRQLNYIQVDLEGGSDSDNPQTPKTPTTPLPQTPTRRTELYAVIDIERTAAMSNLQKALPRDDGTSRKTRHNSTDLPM
The experiment in a line: affinity purification with mass spectrometry; mNeonGreen-Trap IP from bFGF-stimulated (50 ng/mL, 5 min) UW228 FRS2-mNG cells against UW228 WT; on-bead digestion, DIA LC-MS/MS, SAINTexpress; hits log2FC >= 1 and bFDR <= 0.05; n = 3.

Sequences of proteins named here, by UniProt entry; tags and fusion partners are left off. Residues count along the entry.
UniProt O00487: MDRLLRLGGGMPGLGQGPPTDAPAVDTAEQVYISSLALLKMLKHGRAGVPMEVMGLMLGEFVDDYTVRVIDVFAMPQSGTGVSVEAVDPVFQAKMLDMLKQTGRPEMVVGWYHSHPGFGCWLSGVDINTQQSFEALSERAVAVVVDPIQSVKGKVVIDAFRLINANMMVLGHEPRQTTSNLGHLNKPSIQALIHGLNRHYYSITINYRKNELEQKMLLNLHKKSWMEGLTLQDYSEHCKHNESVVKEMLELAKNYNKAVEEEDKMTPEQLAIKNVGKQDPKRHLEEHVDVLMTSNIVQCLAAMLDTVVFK
UniProt Q8IZ07: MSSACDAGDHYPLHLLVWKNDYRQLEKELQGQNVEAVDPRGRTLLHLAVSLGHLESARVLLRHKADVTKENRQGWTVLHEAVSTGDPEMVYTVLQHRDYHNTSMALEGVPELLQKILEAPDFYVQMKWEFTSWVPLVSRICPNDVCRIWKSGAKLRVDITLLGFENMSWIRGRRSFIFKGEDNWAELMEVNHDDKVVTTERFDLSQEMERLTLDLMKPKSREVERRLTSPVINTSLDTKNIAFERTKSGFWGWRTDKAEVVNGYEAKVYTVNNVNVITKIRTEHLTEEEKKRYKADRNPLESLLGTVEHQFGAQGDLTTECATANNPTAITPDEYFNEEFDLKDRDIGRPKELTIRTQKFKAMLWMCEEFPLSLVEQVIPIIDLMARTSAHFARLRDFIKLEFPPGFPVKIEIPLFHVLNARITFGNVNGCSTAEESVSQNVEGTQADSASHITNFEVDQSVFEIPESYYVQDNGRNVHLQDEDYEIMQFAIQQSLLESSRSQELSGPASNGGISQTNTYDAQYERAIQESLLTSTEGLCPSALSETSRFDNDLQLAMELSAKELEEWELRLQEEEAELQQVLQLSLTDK
UniProt P11362, residues 22-822: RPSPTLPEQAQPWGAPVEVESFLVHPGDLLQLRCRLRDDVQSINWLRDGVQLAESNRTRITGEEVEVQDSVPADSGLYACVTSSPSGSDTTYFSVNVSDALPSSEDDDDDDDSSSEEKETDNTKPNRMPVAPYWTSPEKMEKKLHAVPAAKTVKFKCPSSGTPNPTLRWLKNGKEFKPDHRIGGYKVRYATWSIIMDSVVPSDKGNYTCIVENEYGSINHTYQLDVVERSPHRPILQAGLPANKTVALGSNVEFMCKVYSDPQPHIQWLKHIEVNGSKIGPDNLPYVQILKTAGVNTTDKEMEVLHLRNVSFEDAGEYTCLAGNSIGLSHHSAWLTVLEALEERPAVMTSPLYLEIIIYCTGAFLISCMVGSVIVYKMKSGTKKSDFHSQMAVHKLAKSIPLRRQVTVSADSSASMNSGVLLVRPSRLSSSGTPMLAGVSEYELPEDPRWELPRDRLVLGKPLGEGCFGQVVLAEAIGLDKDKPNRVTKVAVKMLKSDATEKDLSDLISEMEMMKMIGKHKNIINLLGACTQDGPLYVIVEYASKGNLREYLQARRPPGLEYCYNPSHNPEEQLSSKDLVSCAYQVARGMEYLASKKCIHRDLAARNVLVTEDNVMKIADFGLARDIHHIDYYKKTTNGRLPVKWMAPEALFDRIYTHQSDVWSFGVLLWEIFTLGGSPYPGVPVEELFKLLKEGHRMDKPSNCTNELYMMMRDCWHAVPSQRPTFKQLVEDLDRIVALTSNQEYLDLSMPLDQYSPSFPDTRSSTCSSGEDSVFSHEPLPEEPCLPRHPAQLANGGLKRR
UniProt P21802, residues 22-821: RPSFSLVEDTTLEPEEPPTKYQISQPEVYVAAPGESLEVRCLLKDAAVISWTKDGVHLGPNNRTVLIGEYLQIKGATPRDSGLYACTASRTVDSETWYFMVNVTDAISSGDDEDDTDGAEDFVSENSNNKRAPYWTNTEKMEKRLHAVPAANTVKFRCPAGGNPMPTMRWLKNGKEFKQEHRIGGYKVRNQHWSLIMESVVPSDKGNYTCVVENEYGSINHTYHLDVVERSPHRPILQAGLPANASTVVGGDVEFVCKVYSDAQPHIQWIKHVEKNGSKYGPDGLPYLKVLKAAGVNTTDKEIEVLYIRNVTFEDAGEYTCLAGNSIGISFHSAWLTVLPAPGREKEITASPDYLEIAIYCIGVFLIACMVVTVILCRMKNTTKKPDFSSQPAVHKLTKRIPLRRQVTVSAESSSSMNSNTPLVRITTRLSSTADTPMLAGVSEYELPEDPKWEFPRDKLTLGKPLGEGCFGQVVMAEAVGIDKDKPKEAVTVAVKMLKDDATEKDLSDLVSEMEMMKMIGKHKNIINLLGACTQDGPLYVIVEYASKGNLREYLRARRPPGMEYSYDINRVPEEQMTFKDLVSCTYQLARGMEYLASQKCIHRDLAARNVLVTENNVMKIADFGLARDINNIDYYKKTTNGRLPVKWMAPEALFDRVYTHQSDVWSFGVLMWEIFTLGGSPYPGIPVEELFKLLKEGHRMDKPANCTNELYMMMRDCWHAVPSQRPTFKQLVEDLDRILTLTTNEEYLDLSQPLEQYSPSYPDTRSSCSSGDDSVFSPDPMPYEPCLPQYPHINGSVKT
UniProt P22607, residues 23-806: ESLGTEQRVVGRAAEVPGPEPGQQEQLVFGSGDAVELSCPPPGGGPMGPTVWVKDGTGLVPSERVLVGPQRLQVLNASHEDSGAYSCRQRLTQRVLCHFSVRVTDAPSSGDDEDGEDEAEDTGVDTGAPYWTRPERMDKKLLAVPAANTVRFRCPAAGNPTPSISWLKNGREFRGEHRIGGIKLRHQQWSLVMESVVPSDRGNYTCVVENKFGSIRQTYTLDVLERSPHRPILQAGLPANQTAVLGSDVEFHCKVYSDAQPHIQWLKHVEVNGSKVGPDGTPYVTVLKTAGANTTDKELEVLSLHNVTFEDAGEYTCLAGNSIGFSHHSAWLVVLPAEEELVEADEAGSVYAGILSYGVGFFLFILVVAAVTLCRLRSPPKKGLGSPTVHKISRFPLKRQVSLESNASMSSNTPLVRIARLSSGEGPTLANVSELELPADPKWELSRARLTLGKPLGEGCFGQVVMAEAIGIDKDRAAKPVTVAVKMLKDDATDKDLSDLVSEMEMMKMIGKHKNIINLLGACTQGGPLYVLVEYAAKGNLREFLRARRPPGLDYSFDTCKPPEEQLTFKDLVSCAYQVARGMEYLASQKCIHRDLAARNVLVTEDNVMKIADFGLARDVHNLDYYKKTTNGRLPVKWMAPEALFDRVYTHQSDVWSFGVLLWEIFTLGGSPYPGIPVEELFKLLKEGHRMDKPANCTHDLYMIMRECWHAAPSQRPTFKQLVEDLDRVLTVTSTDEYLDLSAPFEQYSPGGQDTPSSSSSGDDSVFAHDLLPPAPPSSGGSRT
UniProt Q92615: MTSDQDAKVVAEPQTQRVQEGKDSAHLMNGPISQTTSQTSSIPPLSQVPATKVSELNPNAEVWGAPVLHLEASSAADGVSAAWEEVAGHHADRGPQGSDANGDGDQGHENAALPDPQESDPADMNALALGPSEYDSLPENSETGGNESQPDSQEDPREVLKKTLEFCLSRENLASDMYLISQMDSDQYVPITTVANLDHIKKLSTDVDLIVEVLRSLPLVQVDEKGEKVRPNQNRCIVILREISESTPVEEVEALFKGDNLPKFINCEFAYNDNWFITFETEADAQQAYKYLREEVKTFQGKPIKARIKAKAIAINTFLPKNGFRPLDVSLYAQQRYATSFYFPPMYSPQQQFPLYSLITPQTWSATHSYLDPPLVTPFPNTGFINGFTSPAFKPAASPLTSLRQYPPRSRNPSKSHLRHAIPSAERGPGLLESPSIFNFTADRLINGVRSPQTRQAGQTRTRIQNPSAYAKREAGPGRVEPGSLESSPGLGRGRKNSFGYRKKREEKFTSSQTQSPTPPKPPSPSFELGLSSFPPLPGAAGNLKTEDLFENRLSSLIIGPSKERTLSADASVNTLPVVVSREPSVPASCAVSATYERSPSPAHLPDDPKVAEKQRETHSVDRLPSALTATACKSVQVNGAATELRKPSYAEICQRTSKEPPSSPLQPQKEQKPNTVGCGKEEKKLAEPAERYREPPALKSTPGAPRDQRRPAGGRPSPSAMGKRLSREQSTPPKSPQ
UniProt Q9Y605: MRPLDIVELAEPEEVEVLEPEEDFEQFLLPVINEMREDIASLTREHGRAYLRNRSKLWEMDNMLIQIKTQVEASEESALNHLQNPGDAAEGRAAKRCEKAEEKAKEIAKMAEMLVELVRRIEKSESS
UniProt Q08AE8: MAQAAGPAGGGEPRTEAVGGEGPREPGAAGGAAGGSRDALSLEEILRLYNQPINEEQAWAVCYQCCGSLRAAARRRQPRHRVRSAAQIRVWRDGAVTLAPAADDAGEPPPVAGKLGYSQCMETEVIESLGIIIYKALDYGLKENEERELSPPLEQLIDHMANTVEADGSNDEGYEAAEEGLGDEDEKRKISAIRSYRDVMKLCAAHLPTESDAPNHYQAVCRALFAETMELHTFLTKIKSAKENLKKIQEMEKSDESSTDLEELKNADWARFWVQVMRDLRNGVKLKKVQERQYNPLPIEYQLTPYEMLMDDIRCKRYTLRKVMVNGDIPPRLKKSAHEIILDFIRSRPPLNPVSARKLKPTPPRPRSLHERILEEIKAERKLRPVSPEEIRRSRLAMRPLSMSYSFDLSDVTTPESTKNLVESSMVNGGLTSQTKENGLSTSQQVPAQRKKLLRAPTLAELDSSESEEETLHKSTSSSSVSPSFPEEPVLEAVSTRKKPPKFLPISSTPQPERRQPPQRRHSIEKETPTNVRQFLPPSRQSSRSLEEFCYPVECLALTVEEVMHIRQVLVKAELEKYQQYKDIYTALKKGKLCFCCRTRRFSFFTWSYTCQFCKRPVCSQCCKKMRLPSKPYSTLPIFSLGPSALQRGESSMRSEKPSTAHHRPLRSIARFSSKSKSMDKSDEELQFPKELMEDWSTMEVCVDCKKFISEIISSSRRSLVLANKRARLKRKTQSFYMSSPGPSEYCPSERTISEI
UniProt P51116: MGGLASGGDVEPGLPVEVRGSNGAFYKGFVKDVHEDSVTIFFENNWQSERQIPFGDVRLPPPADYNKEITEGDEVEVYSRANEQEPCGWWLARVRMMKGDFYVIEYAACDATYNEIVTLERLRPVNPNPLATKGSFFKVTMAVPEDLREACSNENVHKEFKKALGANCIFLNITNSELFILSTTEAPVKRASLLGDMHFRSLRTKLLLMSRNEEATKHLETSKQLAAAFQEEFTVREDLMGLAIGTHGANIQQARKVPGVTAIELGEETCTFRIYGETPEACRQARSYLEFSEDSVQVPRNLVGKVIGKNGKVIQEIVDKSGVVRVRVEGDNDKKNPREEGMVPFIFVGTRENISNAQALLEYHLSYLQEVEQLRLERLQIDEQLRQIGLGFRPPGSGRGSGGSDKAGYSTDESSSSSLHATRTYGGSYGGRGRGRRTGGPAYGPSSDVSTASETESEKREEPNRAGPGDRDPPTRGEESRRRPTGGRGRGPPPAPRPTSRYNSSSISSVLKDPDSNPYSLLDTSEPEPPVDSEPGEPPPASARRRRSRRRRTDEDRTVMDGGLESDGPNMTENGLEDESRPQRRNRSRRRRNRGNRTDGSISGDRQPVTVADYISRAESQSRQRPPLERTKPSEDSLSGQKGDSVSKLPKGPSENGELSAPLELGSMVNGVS
UniProt P49770: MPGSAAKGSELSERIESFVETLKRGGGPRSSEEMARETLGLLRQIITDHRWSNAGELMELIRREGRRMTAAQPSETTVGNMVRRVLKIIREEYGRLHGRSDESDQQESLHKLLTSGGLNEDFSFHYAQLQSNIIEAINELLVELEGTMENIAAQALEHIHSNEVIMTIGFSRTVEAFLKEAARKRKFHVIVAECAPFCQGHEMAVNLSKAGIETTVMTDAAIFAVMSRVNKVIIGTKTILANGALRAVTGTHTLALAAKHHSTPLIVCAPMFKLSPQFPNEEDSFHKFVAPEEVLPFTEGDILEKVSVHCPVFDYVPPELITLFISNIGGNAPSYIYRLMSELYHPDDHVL
UniProt Q9UI10: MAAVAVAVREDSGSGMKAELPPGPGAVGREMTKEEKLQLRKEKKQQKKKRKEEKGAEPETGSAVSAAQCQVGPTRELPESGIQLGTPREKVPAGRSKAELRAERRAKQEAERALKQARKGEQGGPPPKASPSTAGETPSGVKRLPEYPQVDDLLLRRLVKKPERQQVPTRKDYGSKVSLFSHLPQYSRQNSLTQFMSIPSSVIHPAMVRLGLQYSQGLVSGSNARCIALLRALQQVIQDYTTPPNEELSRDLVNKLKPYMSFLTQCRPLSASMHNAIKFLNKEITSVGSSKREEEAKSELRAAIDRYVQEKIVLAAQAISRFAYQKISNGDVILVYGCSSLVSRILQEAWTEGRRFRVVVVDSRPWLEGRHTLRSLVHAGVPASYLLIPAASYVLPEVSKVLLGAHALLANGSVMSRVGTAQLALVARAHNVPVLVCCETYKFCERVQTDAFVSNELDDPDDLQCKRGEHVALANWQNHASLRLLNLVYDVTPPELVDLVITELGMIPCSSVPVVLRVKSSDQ

These are yes or no findings as the source states them, for the method shown. Binding seen in cells or lysates may run through a third protein. These calls come from enrichment with a bait or labelling near it, and not all partners need be listed.

In the case of “26S proteasome non-ATPase regulatory subunit 14 (from UniProt O00487 1-310)”, the binding result is “binds”.

Take “A-kinase anchor protein 2 (from UniProt Q9Y2D5-3)”: the binding result is “binds”.

As to “Ankyrin repeat domain-containing protein 13A (from UniProt Q8IZ07 1-590)”, the binding result is given as “binds”.

For “Condensin complex subunit 1 (from UniProt Q15021 1-1401)”, the binding entry is “binds”.

Regarding “Fibroblast growth factor receptor 1 (from UniProt P11362 22-822)”, the binding result is recorded as “binds”.

Turning to “Fibroblast growth factor receptor 2 (from UniProt P21802 22-821)”, the binding result is recorded as “binds”.

For the molecule “Fibroblast growth factor receptor 3 (from UniProt P22607 23-806)”, the binding entry was “binds”.

As to “La-related protein 4B (from UniProt Q92615 1-738)”, the binding entry is “binds”.

With “MORF4 family-associated protein 1 (from UniProt Q9Y605 1-127)”, the binding entry was “binds”.

Turning to “Protein spire homolog 1 (from UniProt Q08AE8 1-756)”, the binding entry is recorded as “binds”.

As to “RNA-binding protein FXR2 (from UniProt P51116 1-673)”, the binding entry was “binds”.

On to “Son of sevenless homolog 1 (from UniProt Q07889 1-1333)”, for which the binding entry is given as “binds”.

On to “Son of sevenless homolog 2 (from UniProt Q07890 1-1332)”, for which the binding result was “binds”.

As for “Syntaxin-binding protein 1 (from UniProt P61764 1-594)”, the binding result is on record as “binds”.

Regarding “Translation initiation factor eIF-2B subunit beta (from UniProt P49770 1-351)”, the binding result is given as “binds”.

As for “Translation initiation factor eIF-2B subunit delta (from UniProt Q9UI10 1-523)”, the binding result is “binds”.

As to “Tyrosine-protein phosphatase non-receptor type 11 (from UniProt Q06124 1-593)”, the binding result is “binds”.

B1: Translation initiation factor eIF-2B subunit alpha (protein, UniProt Q14232 1-305)
chain: MDDKELIEYFKSQMKEDPDMASAVAAIRTLLEFLKRDKGETIQGLRANLTSAIETLCGVDSSVAVSSGGELFLRFISLASLEYSDYSKCKKIMIERGELFLRRISLSRNKIADLCHTFIKDGATILTHAYSRVVLRVLEAAVAAKKRFSVYVTESQPDLSGKKMAKALCHLNVPVTVVLDAAVGYIMEKADLVIVGAEGVVENGGIINKIGTNQMAVCAKAQNKPFYVVAESFKFVRLFPLNQQDVPDKFKYKADTLKVAQTGQDLKEEHPWVDYTAPSLITLLFTDLGVLTPSAVSDELIKLYL
On to B1, for which the binding result is “binds”.

B2: AF4/FMR2 family member 1 (protein, UniProt P51825 1-1210)
chain: MAAQSSLYNDDRNLLRIREKERRNQEAHQEKEAFPEKIPLFGEPYKTAKGDELSSRIQNMLGNYEEVKEFLSTKSHTHRLDASENRLGKPKYPLIPDKGSSIPSSSFHTSVHHQSIHTPASGPLSVGNISHNPKMAQPRTEPMPSLHAKSCGPPDSQHLTQDRLGQEGFGSSHHKKGDRRADGDHCASVTDSAPERELSPLISLPSPVPPLSPIHSNQQTLPRTQGSSKVHGSSNNSKGYCPAKSPKDLAVKVHDKETPQDSLVAPAQPPSQTFPPPSLPSKSVAMQQKPTAYVRPMDGQDQAPSESPELKPLPEDYRQQTFEKTDLKVPAKAKLTKLKMPSQSVEQTYSNEVHCVEEILKEMTHSWPPPLTAIHTPSTAEPSKFPFPTKDSQHVSSVTQNQKQYDTSSKTHSNSQQGTSSMLEDDLQLSDSEDSDSEQTPEKPPSSSAPPSAPQSLPEPVASAHSSSAESESTSDSDSSSDSESESSSSDSEENEPLETPAPEPEPPTTNKWQLDNWLTKVSQPAAPPEGPRSTEPPRRHPESKGSSDSATSQEHSESKDPPPKSSSKAPRAPPEAPHPGKRSCQKSPAQQEPPQRQTVGTKQPKKPVKASARAGSRTSLQGEREPGLLPYGSRDQTSKDKPKVKTKGRPRAAASNEPKPAVPPSSEKKKHKSSLPAPSKALSGPEPAKDNVEDRTPEHFALVPLTESQGPPHSGSGSRTSGCRQAVVVQEDSRKDRLPLPLRDTKLLSPLRDTPPPQSLMVKITLDLLSRIPQPPGKGSRQRKAEDKQPPAGKKHSSEKRSSDSSSKLAKKRKGEAERDCDNKKIRLEKEIKSQSSSSSSSHKESSKTKPSRPSSQSSKKEMLPPPPVSSSSQKPAKPALKRSRREADTCGQDPPKSASSTKSNHKDSSIPKQRRVEGKGSRSSSEHKGSSGDTANPFPVPSLPNGNSKPGKPQVKFDKQQADLHMREAKKMKQKAELMTDRVGKAFKYLEAVLSFIECGIATESESQSSKSAYSVYSETVDLIKFIMSLKSFSDATAPTQEKIFAVLCMRCQSILNMAMFRCKKDIAIKYSRTLNKHFESSSKVAQAPSPCIASTGTPSPLSPMPSPASSVGSQSSAGSVGSSGVAATISTPVTIQNMTSSYVTITSHVLTAFDLWEQAEALTRKNKEFFARLSTNVCTLALNSSLVDLVHYTRQGFQQLQELTKTP
On to B2, for which the binding result was “binds”.

B3: Rho-related GTP-binding protein RhoE (protein, UniProt P61587 1-244)
chain: MKERRASQKLSSKSIMDPNQNVKCKIVVVGDSQCGKTALLHVFAKDCFPENYVPTVFENYTASFEIDTQRIELSLWDTSGSPYYDNVRPLSYPDSDAVLICFDISRPETLDSVLKKWKGEIQEFCPNTKMLLVGCKSDLRTDVSTLVELSNHRQTPVSYDQGANMAKQIGAATYIECSALQSENSVRDIFHVATLACVNKTNKNVKRNKSQRATKRISHMPSRPELSAVATDLRKDKAKSCTVM
With B3, the binding result is on record as “binds”.

B4: Proton-coupled zinc antiporter SLC30A1 (protein, UniProt Q9Y6M5 1-507)
chain: MGCWGRNRGRLLCMLALTFMFMVLEVVVSRVTSSLAMLSDSFHMLSDVLALVVALVAERFARRTHATQKNTFGWIRAEVMGALVNAIFLTGLCFAILLEAIERFIEPHEMQQPLVVLGVGVAGLLVNVLGLCLFHHHSGFSQDSGHGHSHGGHGHGHGLPKGPRVKSTRPGSSDINVAPGEQGPDQEETNTLVANTSNSNGLKLDPADPENPRSGDTVEVQVNGNLVREPDHMELEEDRAGQLNMRGVFLHVLGDALGSVIVVVNALVFYFSWKGCSEGDFCVNPCFPDPCKAFVEIINSTHASVYEAGPCWVLYLDPTLCVVMVCILLYTTYPLLKESALILLQTVPKQIDIRNLIKELRNVEGVEEVHELHVWQLAGSRIIATAHIKCEDPTSYMEVAKTIKDVFHNHGIHATTIQPEFASVGSKSSVVPCELACRTQCALKQCCGTLPQAPSGKDAEKTPAVSISCLELSNNLEKKPRRTKAENIPAVVIEIKNMPNKQPESSL
Turning to B4, the binding result was “binds”.

B5: Serine/threonine-protein kinase RIO3 (protein, UniProt O14730 1-519)
chain: MDLVGVASPEPGTAAAWGPSKCPWAIPQNTISCSLADVMSEQLAKELQLEEEAAVFPEVAVAEGPFITGENIDTSSDLMLAQMLQMEYDREYDAQLRREEKKFNGDSKVSISFENYRKVHPYEDSDSSEDEVDWQDTRDDPYRPAKPVPTPKKGFIGKGKDITTKHDEVVCGRKNTARMENFAPEFQVGDGIGMDLKLSNHVFNALKQHAYSEERRSARLHEKKEHSTAEKAVDPKTRLLMYKMVNSGMLETITGCISTGKESVVFHAYGGSMEDEKEDSKVIPTECAIKVFKTTLNEFKNRDKYIKDDFRFKDRFSKLNPRKIIRMWAEKEMHNLARMQRAGIPCPTVVLLKKHILVMSFIGHDQVPAPKLKEVKLNSEEMKEAYYQTLHLMRQLYHECTLVHADLSEYNMLWHAGKVWLIDVSQSVEPTHPHGLEFLFRDCRNVSQFFQKGGVKEALSERELFNAVSGLNITADNEADFLAEIEALEKMNEDHVQKNGRKAASFLKDDGDPPLLYDE
Take B5: the binding result is given as “binds”.

B6: HAUS augmin-like complex subunit 5 (protein, UniProt O94927 1-633)
chain: MELAQEARELGCWAVEEMGVPVAARAPESTLRRLCLGQGADIWAYILQHVHSQRTVKKIRGNLLWYGHQDSPQVRRKLELEAAVTRLRAEIQELDQSLELMERDTEAQDTAMEQARQHTQDTQRRALLLRAQAGAMRRQQHTLRDPMQRLQNQLRRLQDMERKAKVDVTFGSLTSAALGLEPVVLRDVRTACTLRAQFLQNLLLPQAKRGSLPTPHDDHFGTSYQQWLSSVETLLTNHPPGHVLAALEHLAAEREAEIRSLCSGDGLGDTEISRPQAPDQSDSSQTLPSMVHLIQEGWRTVGVLVSQRSTLLKERQVLTQRLQGLVEEVERRVLGSSERQVLILGLRRCCLWTELKALHDQSQELQDAAGHRQLLLRELQAKQQRILHWRQLVEETQEQVRLLIKGNSASKTRLCRSPGEVLALVQRKVVPTFEAVAPQSRELLRCLEEEVRHLPHILLGTLLRHRPGELKPLPTVLPSIHQLHPASPRGSSFIALSHKLGLPPGKASELLLPAAASLRQDLLLLQDQRSLWCWDLLHMKTSLPPGLPTQELLQIQASQEKQQKENLGQALKRLEKLLKQALERIPELQGIVGDWWEQPGQAALSEELCQGLSLPQWRLRWVQAQGALQKLCS
In the case of B6, the binding entry is recorded as “binds”.

Source of the values: article PMC13393275.
